We go through 22 compounds from PubChem BioAssay AID248 (DTP/NCI, 2004).

The test system of this experiment is L1210 leukemia ip in BDF1 mice, survival T/C. The experiment can be described thus: NCI In Vivo Anticancer Drug Screen. Data for tumor model L1210 Leukemia (intraperitoneal) in B6D2F1 (BDF1) mice. To be noted: higher T/C = longer survival.
Where [1] appears, read: T/C endpoint: mean survival time, dose: 200.0 mg/kg/injection, schedule: Q01DX001 (ip), vehicle: carboxymethylcellulose (CMC).
The mark [2] stands for this setting: T/C endpoint: mean survival time, dose: 400.0 mg/kg/injection, schedule: Q01DX001 (ip), vehicle: carboxymethylcellulose (CMC).
Where [3] appears, read: T/C endpoint: mean survival time, dose: 200.0 mg/kg/injection, schedule: Q01DX001 (ip), vehicle: saline.
Setting [4] is: T/C endpoint: mean survival time, dose: 400.0 mg/kg/injection, schedule: Q01DX001 (ip), vehicle: saline.
Setting [5] is: T/C endpoint: mean survival time, dose: 400.0 mg/kg/injection, schedule: Q04DX003 (ip), vehicle: saline with Tween-80.
Setting [6] is: T/C endpoint: mean survival time, dose: 200.0 mg/kg/injection, schedule: Q04DX003 (ip), vehicle: Klucel (hydroxypropylcellulose) (HPC).
The mark [7] stands for this setting: T/C endpoint: mean survival time, dose: 200.0 mg/kg/injection, schedule: Q04DX002 (ip), vehicle: Klucel (hydroxypropylcellulose) (HPC).
Setting [8] is: T/C endpoint: mean survival time, dose: 400.0 mg/kg/injection, schedule: Q04DX003 (ip), vehicle: Klucel (hydroxypropylcellulose) (HPC).

The list is a part of this screen's results and no random one: it gathers tests that were run many times, whatever their T/C, doses with no T/C, and many T/C values between a quarter and a half above the control. Further doses and runs are listed elsewhere. T/C is the treated group as % of the vehicle group. Some doses have a count of surviving animals in place of a T/C: the source holds a T/C of zero for them, seemingly a mark for toxic or unscored doses. Some doses without a T/C left all or most animals alive at the check, yet need not have been tolerated: survival well below the control is almost never listed, so the zero probably covers shortened survival too. Survivors were counted at the toxicity check, usually on the fifth day, unless a day is given; later deaths do not show. Schedule codes are those of the source, read here as Q, the interval in days (D) or hours (H), X, the number of doses. Some entries hold several experiments; the values are given in rising order. For survival time, the PubChem record calls one and a half times the control and up active, and a quarter to a half above the control has no call in these data; cut-offs in other NCI protocols can differ. Some T/C values carry the count of animals alive at the toxicity check (mostly the fifth day); where none is given, no animal had died by that day.

Consider `CCOCC(=O)C(C#N)c1ccc(Cl)c(Cl)c1` (stereo not drawn), for which the survivor count is, setting by setting: under setting [1], 0 of 4; under setting [2], 0 of 4.

`C/C(=N/N(C)C)c1ccc([N+](=O)[O-])cc1`: the survivor count (T/C endpoint: mean survival time, dose: 400.0 mg/kg/injection, schedule: Q01DX009 (ip), vehicle: saline) is given as 3 of 6.

`CC/C=C(\C)C1(CCC)C(N)=NC(=O)N=C1N`: where the note is “T/C endpoint: mean survival time, dose: 300.0 mg/kg/injection, schedule: Q01DX001 (ip), vehicle: carboxymethylcellulose (CMC)”, the survivor count is recorded as 0 of 6.

On to `COc1cc(CNCc2cc(OC)c(OC)c(OC)c2)cc(OC)c1OC`, for which the survivor count under setting [3] is 2 of 4 and the survivor count under setting [4] is on record as 0 of 4.

As to `COc1ccc2c(c1)C/C(=N\O)C2=O`, the survivor count (T/C endpoint: mean survival time, dose: 200.0 mg/kg/injection, schedule: Q04DX003 (ip), vehicle: saline with Tween-80) is 1 of 6 and the survivor count under setting [5] is 0 of 6.

Turning to `c1ccc2occc2c1`, the survivor count reads like this: under setting [3], 1 of 4; under setting [4], 0 of 4.

As for `O=c1[nH]ncc(Cl)c1Cl`, for the setting “T/C endpoint: mean survival time, dose: 50.0 mg/kg/injection, schedule: Q01DX009 (ip), vehicle: saline with Tween-80”, the survivor count is recorded as 3 of 3.

Turning to `CCCCCCCCCCC(=O)CCC`, the survivor count by setting is: (T/C endpoint: mean survival time, dose: 200.0 mg/kg/injection, schedule: Q01DX009 (ip), vehicle: Klucel (hydroxypropylcellulose) (HPC)) 6 of 6; under setting [6], 6 of 6.

In the case of `Cc1cs[n+](C)c1`, the survivor count under setting [4] is 1 of 6.

`Cc1ccc2c(c1C)-c1c(ccc(C)c1C)C(=O)C2=O`: under setting [7], the T/C is 136 % of control [2 of 3 alive].

Regarding `O=C(C1C(c2ccccc2)C1c1ccccc1)N(CCCl)Cc1ccccc1` (stereo not drawn), the survivor count by setting is: (T/C endpoint: mean survival time, dose: 100.0 mg/kg/injection, schedule: Q04DX002 (ip), vehicle: Klucel (hydroxypropylcellulose) (HPC)) 3 of 3; under setting [7], 3 of 3; (T/C endpoint: mean survival time, dose: 400.0 mg/kg/injection, schedule: Q04DX002 (ip), vehicle: Klucel (hydroxypropylcellulose) (HPC)) 3 of 3.

Consider `Cc1ccc(NC(=O)COc2ccc(C)cc2C)cc1`, for which the survivor count (T/C endpoint: mean survival time, dose: 400.0 mg/kg/injection, schedule: Q04DX002 (ip), vehicle: gum acacia) is given as 3 of 3.

Consider `Cc1cc(Oc2ccc(Cl)cc2NC(=O)Nc2ccc(Cl)c(Cl)c2)c(S(=O)(=O)O)cc1Cl`, for which the survivor count runs as follows: (T/C endpoint: mean survival time, dose: 200.0 mg/kg/injection, schedule: Q04DX003 (ip), vehicle: saline) 2 of 6; (T/C endpoint: mean survival time, dose: 400.0 mg/kg/injection, schedule: Q04DX003 (ip), vehicle: saline) 0 of 6.

For the compound `C=CCNC(=S)NN`, the survivor count (T/C endpoint: mean survival time, dose: 25.0 mg/kg/injection, schedule: Q04DX003 (ip), vehicle: Klucel (hydroxypropylcellulose) (HPC)) is 0 of 6 and 2 of 6; the survivor count (T/C endpoint: mean survival time, dose: 50.0 mg/kg/injection, schedule: Q04DX003 (ip), vehicle: Klucel (hydroxypropylcellulose) (HPC)) is reported as 0 of 6; the survivor count (T/C endpoint: mean survival time, dose: 100.0 mg/kg/injection, schedule: Q04DX003 (ip), vehicle: Klucel (hydroxypropylcellulose) (HPC)) is 0 of 6; the survivor count under setting [6] is recorded as 0 of 6; the survivor count under setting [8] is given as 0 of 6.

For `CC(O)C#CC#CC(C)O` (stereo not drawn), the survivor count runs as follows: (T/C endpoint: mean survival time, dose: 75.0 mg/kg/injection, schedule: Q01DX009 (ip), vehicle: saline) 2 of 3; (T/C endpoint: mean survival time, dose: 115.0 mg/kg/injection, schedule: Q01DX009 (ip), vehicle: saline) 0 of 3; (T/C endpoint: mean survival time, dose: 170.0 mg/kg/injection, schedule: Q01DX009 (ip), vehicle: saline) 0 of 3.

Regarding `OC1CNCCc2ccccc21` (stereo not drawn), the survivor count under setting [8] is reported as 1 of 6.

As to `CC(C)=CCNc1ncnc2nc[nH]c12`, the survivor count runs as follows: (T/C endpoint: mean survival time, dose: 40.0 mg/kg/injection, schedule: Q04DX003 (ip), vehicle: saline with Tween-80) 3 of 6; (T/C endpoint: mean survival time, dose: 80.0 mg/kg/injection, schedule: Q01DX001 (ip), vehicle: saline) 1 of 4; (T/C endpoint: mean survival time, dose: 80.0 mg/kg/injection, schedule: Q04DX003 (ip), vehicle: saline with Tween-80) 2 of 6; (T/C endpoint: mean survival time, dose: 100.0 mg/kg/injection, schedule: Q01DX001 (ip), vehicle: saline) 2 of 4; under setting [3], 1 of 4; under setting [4], 2 of 4.

For the compound `CCC(C)C1NC(=O)C(NC(=O)c2c3nc4c(C(=O)NC5C(=O)NC(C(C)C)C(=O)N6CCCC6C(=O)N(C)CC(=O)N(C)C(C(C)C)C(=O)OC5C)ccc(C)c4oc-3c(C)c(=O)c2N)C(C)OC(=O)C(C(C)C)N(C)C(=O)CN(C)C(=O)C2CCCN2C1=O` (stereo not drawn), the T/C is 148 % of control (T/C endpoint: mean survival time, dose: 0.05 mg/kg/injection, schedule: Q01DX009 (ip), vehicle: saline); 125 % of control (T/C endpoint: mean survival time, dose: 0.1 mg/kg/injection, schedule: Q01DX009 (ip), vehicle: saline); 132 % of control (T/C endpoint: mean survival time, dose: 6.0 micrograms/kg/injection, schedule: Q01DX009 (ip), vehicle: saline); 131 % of control (T/C endpoint: mean survival time, dose: 12.5 micrograms/kg/injection, schedule: Q01DX009 (ip), vehicle: acetone); 132 and 135 % of control (T/C endpoint: mean survival time, dose: 12.5 micrograms/kg/injection, schedule: Q01DX009 (ip), vehicle: saline); 140 % of control (T/C endpoint: mean survival time, dose: 25.0 micrograms/kg/injection, schedule: Q01DX009 (ip), vehicle: saline). Further, the T/C was 136 % of control (T/C endpoint: median survival time, dose: 50.0 micrograms/kg/injection, schedule: Q01DX009 (ip), vehicle: water); 125 % of control (T/C endpoint: median survival time, dose: 75.0 micrograms/kg/injection, schedule: Q04DX003 (ip), vehicle: water); 134 % of control (T/C endpoint: median survival time, dose: 150.0 micrograms/kg/injection, schedule: Q04DX003 (ip), vehicle: water); 140 % of control (T/C endpoint: median survival time, dose: 300.0 micrograms/kg/injection, schedule: Q04DX003 (ip), vehicle: water); 140 % of control (T/C endpoint: median survival time, dose: 800.0 micrograms/kg/injection, schedule: Q01DX001 (ip), vehicle: water). Moreover, the survivor count by setting is: (T/C endpoint: mean survival time, dose: 0.4 mg/kg/injection, schedule: Q01DX009 (ip), vehicle: saline) 4 of 6; (T/C endpoint: mean survival time, dose: 100.0 micrograms/kg/injection, schedule: Q01DX009 (ip), vehicle: saline) 6 of 6; (T/C endpoint: median survival time, dose: 1600.0 micrograms/kg/injection, schedule: Q01DX001 (ip), vehicle: water) 3 of 10.

With `CCCCN(CCCC)CCCCO`, the survivor count under setting [5] is 0 of 6.

Consider `CC(=O)c1ccc(N2CCNCC2)cc1`, for which the survivor count (T/C endpoint: mean survival time, dose: 80.0 mg/kg/injection, schedule: Q01DX001 (ip), vehicle: carboxymethylcellulose (CMC)) is given as 2 of 4; the survivor count (T/C endpoint: mean survival time, dose: 100.0 mg/kg/injection, schedule: Q01DX001 (ip), vehicle: carboxymethylcellulose (CMC)) is 0 of 4; the survivor count under setting [1] is reported as 0 of 4; the survivor count under setting [2] is given as 0 of 4.

As for `C=CCn1c(-c2cccs2)nc2c(=S)nc[nH]c21`, the survivor count (T/C endpoint: mean survival time, dose: 108.0 mg/kg/injection, schedule: Q01DX009 (ip), vehicle: steroid suspending solution) is listed as 6 of 6 and the survivor count (T/C endpoint: mean survival time, dose: 300.0 mg/kg/injection, schedule: Q01DX009 (ip), vehicle: steroid suspending solution) is given as 5 of 6.

For `Cc1c(CBr)c2ccccc2[nH]c1=O`, the survivor count (T/C endpoint: mean survival time, dose: 400.0 mg/kg/injection, schedule: Q01DX001 (ip), vehicle: other) is given as 0 of 4.
